Source: paper PMC10259508
Results are given in words; binding and its absence hold for the method and conditions named. Binding seen in cells or lysates may run through a third protein. Some results given as binding are weak or reduced against the parent protein; the word gives no strength. Sequences can lack the tags named with a protein. Blank lines part the entries; values can stand above or below the binder they belong to.

Assays:
[1] = target: T1, Forkhead box M1 (FOXM1), FLAG-tagged (UniProt Q08050); experiment: co-IP; HEK293T cells transfected with the tagged constructs, 10 uM MG132 for 8 hours before harvest; lysis in EBC buffer (50 mM Tris pH 7.5, 120 mM NaCl, 0.5% NP-40); anti-HA or anti-FLAG agarose beads, 3 hours at 4 °C; washed with NETN buffer; immunoblot; some panels with DMSO or RCM-1 (10 uM) and LMB (25 nM) for 24 hours
T1 sequence: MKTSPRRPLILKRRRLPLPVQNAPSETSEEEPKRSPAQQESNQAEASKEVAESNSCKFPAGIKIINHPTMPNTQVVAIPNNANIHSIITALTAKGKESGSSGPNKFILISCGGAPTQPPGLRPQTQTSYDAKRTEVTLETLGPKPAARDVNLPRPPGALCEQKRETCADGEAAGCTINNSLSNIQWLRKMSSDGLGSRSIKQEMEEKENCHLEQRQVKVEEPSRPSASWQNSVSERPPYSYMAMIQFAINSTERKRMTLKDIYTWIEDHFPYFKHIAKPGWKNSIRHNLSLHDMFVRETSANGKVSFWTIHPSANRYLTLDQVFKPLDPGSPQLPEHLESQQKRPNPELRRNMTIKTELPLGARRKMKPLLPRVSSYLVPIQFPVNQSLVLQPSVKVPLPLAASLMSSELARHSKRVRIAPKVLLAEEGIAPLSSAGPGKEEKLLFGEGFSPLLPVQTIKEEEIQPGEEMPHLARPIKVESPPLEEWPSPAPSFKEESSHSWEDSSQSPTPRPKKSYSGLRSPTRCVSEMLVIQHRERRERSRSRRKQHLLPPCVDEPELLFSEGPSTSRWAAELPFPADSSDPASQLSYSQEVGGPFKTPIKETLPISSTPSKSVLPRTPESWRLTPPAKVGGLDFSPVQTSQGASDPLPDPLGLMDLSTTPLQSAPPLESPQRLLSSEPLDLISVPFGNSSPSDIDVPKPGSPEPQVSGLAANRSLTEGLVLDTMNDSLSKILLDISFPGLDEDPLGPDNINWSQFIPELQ

[2] = target: T2, FOXM1 bait of the GST pull-down (UniProt Q08050); experiment: pull-down; GST pull-down from lysate of HEK293T cells transfected with RNF112-HA plasmid; immunoblot of whole-cell lysates and pull-down products
T2 sequence: T1 sequence

[3] = target: T3, DNA binding domain of FOXM1 (235-347 aa) (UniProt Q08050); experiment: co-IP; HEK293T cells transfected with the tagged constructs, 10 uM MG132 for 8 hours before harvest; lysis in EBC buffer (50 mM Tris pH 7.5, 120 mM NaCl, 0.5% NP-40); anti-HA or anti-FLAG agarose beads, 3 hours at 4 °C; washed with NETN buffer; immunoblot; some panels with DMSO or RCM-1 (10 uM) and LMB (25 nM) for 24 hours
T3 sequence: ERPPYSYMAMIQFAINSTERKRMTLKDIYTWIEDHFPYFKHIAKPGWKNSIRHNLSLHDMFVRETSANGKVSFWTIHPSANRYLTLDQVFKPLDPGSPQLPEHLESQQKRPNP

binding [1]: binds
B1: N-terminus of RNF112 (1-147 aa) (domain or fragment, UniProt Q9ULX5 1-147)
chain: MPRPALSVTSFCHRLGKRERKQSFMGNSGNSWSHTPFPKLELGLGPQPMAPRELPTCSICLERLRDPISLDCGHDFCIRCFSTHRLPGCEPPCCPECRKICKQKRGLRSLGEKMKLLPQRPLPPALQETCPVRAEPLLLVRINASGG

binding [2]: binds | binding [3]: binds | binding [1]: binds
B2: RING finger protein 112 (RNF112), HA-tagged (enzyme, UniProt Q9ULX5 1-631)
chain: MPRPALSVTSFCHRLGKRERKQSFMGNSGNSWSHTPFPKLELGLGPQPMAPRELPTCSICLERLRDPISLDCGHDFCIRCFSTHRLPGCEPPCCPECRKICKQKRGLRSLGEKMKLLPQRPLPPALQETCPVRAEPLLLVRINASGGLILRMGAINRCLKHPLARDTPVCLLAVLGEQHSGKSFLLNHLLQGLPGLESGEGGRPRGGEASLQGCRWGANGLARGIWMWSHPFLLGKEGKKVAVFLVDTGDAMSPELSRETRIKLCALTTMLSSYQILSTSQELKDTDLDYLEMFVHVAEVMGKHYGMVPIQHLDLLVRDSSHPNKAGQGHVGNIFQRLSGRYPKVQELLQGKRARCCLLPAPGRRRMNQGHASPGDTDDDFRHLLGAYVSDVLSAAPQHAKSRCQGYWNEGRAVARGDRRLLTGQQLAQEIKNLSGWMGRTGPGFTSPDEMAAQLHDLRKVEAAKREFEEYVRQQDVATKRIFSALRVLPDTMRNLLSTQKDAILARHGVALLCKGRDQTLEALEAELQATAKAFMDSYTMRFCGHLAAVGGAVGAGLMGLAGGVVGAGMAAAALAAEAGMVAAGAAVGATGAAVVGGGVGAGLAATVGCMEKEEDERLLEGDREPLLQEE
